# Measured values from patent US20060110789A1, “Methods to mediate polyketide synthase module effectiveness” (priority 2002, published 2006).
# For some of these results: The name of at least one read-out is uncertain. For some of these results: At least one structure is not confirmed: it was looked up by name or label, or the drawing left a doubt. Some of these results come from one statement about several compounds together.
# Experiments:
# [1] = tested on: DEBS module 5 ((5)M5+TE or (3)M5+TE); assay: Substrate transfer and elongation assay, acceptor DEBS module 5; format: biochemical
# Procedure: Substrate transfer and elongation assays. Qualitative assays were performed with a diketide-ACP or diketide-PCP substrate either taken directly from the so phosphopantetheinlyation reaction or after further purification of the substrate. These assays were performed with 20 μM diketide-ACP/PCP substrate for 2 hours in the following reaction conditions: 1 μM acceptor module, 0.5 mM ^14C-methylmalonyl CoA, 4 mM NADPH in buffer C, 30° C. After quenching by addition of 250 μL EtOAc and vortexing, the products were extracted with 2×250 μL EtOAc, resolved on a silica gel TLC plate, and visualized on a Packard InstantImager.
# The kinetics of substrate transfer at the module 2-module 3 interface followed by elongation and product release were examined as a function of the k60 μM and kcat/KM values of the overall reaction. The k60 μm values reported here represent the apparent overall rate of product formation at an initial substrate concentration of 60 μM. In many cases, the k60μm values approximate the maximal overall turnover rates, as determined by back calculating the KM value for the reactions. True saturation kinetics were not practical because of the technical limitations (e.g., solubility) and limited supply associated with high molecular weight substrates such as diketide-ACP and diketide-PCP. kcat/KM values were determined by competitive assay of the substrate of interest against a substrate with a known kcat/KM value, as previously described (Wu, et al., (2001) J. Am. Chem. Soc. 123, 6465-6474). […]
# These reactions were quenched by the addition of 80 μL 12.5% SDS to 2 μL reaction mixture and immediate vortexing. […] After removing the organic solvents in vacuo, the residual products were then spotted onto a TLC plate (Baker-flex 250 uM silica gel), resolved in 60% EtOAc/40% hexanes, and the radioactive spots were visualized and quantified on a Packard InstantImager. […]
# [2] = tested on: M3+TE or (5)M3+TE (DEBS module 3 fused to thioesterase); assay: Coincubation of donor module 2 proteins with module 3+TE: tetraketide lactone 2 formation and KD; format: biochemical; details: mismatched linker pair, acceptor M3+TE
# Procedure: Assays of M2 and M3+TE contained 10 μM M2 and […] M3+TE, 7 mM NDK, 0.5 mM ^14C-methylmalonyl-CoA (specific activity reduced to 3.4 mCi/mmol), 4 mM NADPH, 440 mM sodium phosphate, 1 mM EDTA, 2.5 mM DTT, and 20% w/v glycerol, pH 7.2, in 70 μL. Assays of M2(4) and (5)M3+TE were identical, except they contained 0.5 μM M2(4), 0.5-5 μM (5)M3+TE, and 0.4 mM ^14C-methylmalonyl-CoA (specific activity reduced to 6.2 mCi/mmol). The concentration of M2(4) was limiting in order to facilitate its saturation with (5)M3+TE. The reactions were prewarmed at 30° C. and initiated by the addition of the methylmalonyl-CoA. As described above, 20 μL aliquots were removed at various time points and processed. […]
# For tetraketide formation, the rate of production of tetaketide was recorded for varying concentrations of M3+TE [or (5)M3+TE] at a fixed concentration of M2 [or M2(4)] and saturating concentrations of substrates. By fitting the rate dependence of tetraketide to a saturation curve, the maximal velocity (vmax) of tetraketide production was determined, and was assumed to represent the case where every M2 homodimer was productively associated with an M3+TE homodimer. Thus, the affinity of this protein-protein interaction could be calculated from the rate v=kcat[M2−M3] […]
molecule,measurement,setting,value
"CCCC[C@@H](O)[C@H](C)C(=O)SCCNC(C)=O [VDK-SNAC, (2S, 3R)-2-methyl-3-hydroxy-S-(N-acetylcysteamine)-heptanethioate, reference compound]",kcat/KM,"[1]; acceptor (3)M5+TE, initial slope of a v vs. [S] plot",1.3 M⁻¹ s⁻¹
M2(4): derivative of M2 containing the C-terminal linker of DEBS module 4 (pST179),"highest rate constants that could be measured, tetraketide lactone 2",[2],0.02 to 0.03 min⁻¹
diketide-ACP4(Ø): diketide on isolated ACP4 domain without linker region,kcat/KM,"[1]; acceptor (3)M5+TE, FIG. 29 B",41.7 M⁻¹ s⁻¹
same,kcat/KM,"[1]; acceptor (5)M5+TE, competitive assay",68.3 M⁻¹ s⁻¹
